Experimental data published in PMC5993538, “The plant-specific transcription factors CBP60g and SARD1 are targeted by a Verticillium secretory protein VdSCP41 to modulate immunity”.

Columns and labels:
[1] = target: T1, CBP60gN-HA (N-terminal portion of CBP60g, amino acids 1–361) (Arabidopsis) (UniProt F4K2R6); assay: co-IP; Arabidopsis protoplasts co-transfected; anti-HA antibody with protein A agarose, 4°C, 4 hr; VdSCP41-FLAG detected by anti-FLAG immunoblot
T1 sequence: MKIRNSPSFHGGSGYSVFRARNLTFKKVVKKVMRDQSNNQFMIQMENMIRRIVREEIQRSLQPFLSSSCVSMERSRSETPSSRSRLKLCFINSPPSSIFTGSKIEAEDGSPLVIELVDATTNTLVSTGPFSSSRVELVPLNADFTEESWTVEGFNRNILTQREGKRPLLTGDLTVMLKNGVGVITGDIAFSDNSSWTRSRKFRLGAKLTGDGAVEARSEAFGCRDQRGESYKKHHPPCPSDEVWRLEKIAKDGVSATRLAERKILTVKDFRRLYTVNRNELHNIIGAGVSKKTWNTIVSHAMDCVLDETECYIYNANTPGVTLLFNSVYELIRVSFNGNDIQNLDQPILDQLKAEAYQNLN

SARD1-HA (Arabidopsis) = target: T2, SARD1-HA (Arabidopsis) (UniProt Q9C9T2); assay: as above
T2 sequence: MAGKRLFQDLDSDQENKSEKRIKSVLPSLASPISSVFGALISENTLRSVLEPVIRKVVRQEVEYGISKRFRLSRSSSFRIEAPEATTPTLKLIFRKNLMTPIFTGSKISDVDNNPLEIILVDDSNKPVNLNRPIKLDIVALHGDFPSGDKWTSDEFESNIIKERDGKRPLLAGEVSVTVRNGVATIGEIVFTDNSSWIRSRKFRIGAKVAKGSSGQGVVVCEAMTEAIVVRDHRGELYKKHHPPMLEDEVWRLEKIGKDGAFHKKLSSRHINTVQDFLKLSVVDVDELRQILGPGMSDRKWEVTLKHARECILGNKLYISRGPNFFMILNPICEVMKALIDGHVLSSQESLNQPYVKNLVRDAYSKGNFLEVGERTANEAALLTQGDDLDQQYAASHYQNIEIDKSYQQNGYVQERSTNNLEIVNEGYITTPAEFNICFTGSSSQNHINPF

[2] = target: T3, CBP60g fused with a 3 × HA tag (Arabidopsis) (UniProt F4K2R6); assay: as above
T3 sequence: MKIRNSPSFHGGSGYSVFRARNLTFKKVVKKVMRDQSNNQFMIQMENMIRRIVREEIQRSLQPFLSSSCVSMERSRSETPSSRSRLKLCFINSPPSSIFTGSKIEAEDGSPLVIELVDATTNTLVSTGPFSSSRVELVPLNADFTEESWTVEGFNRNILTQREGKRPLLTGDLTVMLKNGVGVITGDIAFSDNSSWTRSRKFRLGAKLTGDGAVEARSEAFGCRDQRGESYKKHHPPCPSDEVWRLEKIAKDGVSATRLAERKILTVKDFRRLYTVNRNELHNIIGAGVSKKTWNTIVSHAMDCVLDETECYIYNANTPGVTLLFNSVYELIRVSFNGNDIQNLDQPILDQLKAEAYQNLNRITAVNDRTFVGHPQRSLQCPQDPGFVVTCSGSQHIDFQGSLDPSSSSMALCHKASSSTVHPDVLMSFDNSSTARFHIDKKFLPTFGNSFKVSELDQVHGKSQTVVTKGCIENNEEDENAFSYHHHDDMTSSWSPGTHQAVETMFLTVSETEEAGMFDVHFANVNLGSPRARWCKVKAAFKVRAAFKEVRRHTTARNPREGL

[3] = target: T4, CBP60gC-HA (C-terminal portion of CBP60g, amino acids 211-end) (Arabidopsis) (UniProt F4K2R6); assay: as above
T4 sequence: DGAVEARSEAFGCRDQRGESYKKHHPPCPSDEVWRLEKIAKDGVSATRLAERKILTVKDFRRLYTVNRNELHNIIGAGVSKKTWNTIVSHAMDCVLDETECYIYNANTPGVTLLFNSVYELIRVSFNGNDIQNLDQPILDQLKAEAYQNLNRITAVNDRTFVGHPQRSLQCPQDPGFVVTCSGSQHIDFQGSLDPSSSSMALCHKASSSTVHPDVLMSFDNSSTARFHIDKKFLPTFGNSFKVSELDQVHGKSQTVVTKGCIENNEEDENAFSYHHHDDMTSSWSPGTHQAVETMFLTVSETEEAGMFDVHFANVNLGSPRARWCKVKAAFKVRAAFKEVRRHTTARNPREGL

[4] = target: T5, CBP60g_(441-end), HA-tagged (Arabidopsis) (UniProt F4K2R6); assay: as above
T5 sequence: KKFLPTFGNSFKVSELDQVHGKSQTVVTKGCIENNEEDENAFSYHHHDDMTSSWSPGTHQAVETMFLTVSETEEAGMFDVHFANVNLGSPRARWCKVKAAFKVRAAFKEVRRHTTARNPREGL

[5] = target: T6, CLuc-CBP60g (Arabidopsis) (UniProt F4K2R6); assay: split reporter; luciferase complementation imaging in N. benthamiana leaves, Agrobacterium-infiltrated NLuc- and CLuc-tagged constructs, LUC activity 2 days post infiltration, CCD imaging and microplate luminometer
T6 sequence: T3 sequence

In the case of “FLAG-tagged VdSCP41 (Verticillium dahliae)”, the binding [1] is reported as “no binding”, the binding (SARD1-HA (Arabidopsis)) is reported as “binds” and the binding [2] is reported as “binds”. For the same substance, the binding [3] was “binds” and the binding [4] was “no binding”.
For NLuc-VdSCP41 (Verticillium dahliae), the binding [5] was “binds”.

These are yes or no findings as the source states them, for the method shown. In cells and extracts the contact can be indirect. For part of these data: Binding can be weak; no strength is given. Where a sequence is shown, tags or fusion partners need not be part of it.
